Drawing on paper PMC10364420, this text covers binding for two molecules.

Results are given in words; binding and its absence hold for the method and conditions named. In cells and extracts the contact can be indirect. Some entries that bind do so weakly or less than the wild type. For part of these data: Sequences can lack the tags named with a protein.

In assay [1] the target is T1, protein disulfide isomerase family a member 4 (PDIA4), endogenous (human (endogenous in HUVECs)) (UniProt P13667).
T1 sequence: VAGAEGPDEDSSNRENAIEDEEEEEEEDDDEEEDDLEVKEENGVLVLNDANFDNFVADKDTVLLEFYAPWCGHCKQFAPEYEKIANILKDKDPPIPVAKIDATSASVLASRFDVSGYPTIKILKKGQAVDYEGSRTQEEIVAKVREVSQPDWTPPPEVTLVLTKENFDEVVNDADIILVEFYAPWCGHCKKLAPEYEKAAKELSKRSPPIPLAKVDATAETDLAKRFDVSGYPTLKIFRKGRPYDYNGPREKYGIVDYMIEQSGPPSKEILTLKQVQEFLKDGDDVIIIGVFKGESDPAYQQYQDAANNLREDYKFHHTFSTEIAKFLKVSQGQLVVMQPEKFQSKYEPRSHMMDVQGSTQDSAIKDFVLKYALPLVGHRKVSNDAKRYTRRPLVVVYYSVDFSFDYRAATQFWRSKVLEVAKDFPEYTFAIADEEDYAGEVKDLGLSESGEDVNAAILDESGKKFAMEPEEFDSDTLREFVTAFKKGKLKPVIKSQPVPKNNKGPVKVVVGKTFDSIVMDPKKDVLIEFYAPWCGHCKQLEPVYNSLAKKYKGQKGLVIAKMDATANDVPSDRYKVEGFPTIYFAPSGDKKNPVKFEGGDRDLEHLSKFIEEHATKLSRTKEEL
The assay can be described thus: co-IP; endogenous proteins in HUVEC lysate; supernatants incubated with anti-PDIA4, anti-DDIT4 or anti-IgG at 4 °C overnight, protein A/G-agarose beads 2 h, western blotting. On the technique in general: A western blot detects proteins with antibodies after separation by electrophoresis.

Assay [2] concerns the target T2, PDIA4 overexpressed from lentiviral vector pGC-FU/GV350 (Ubi-MCS-3FLAG-SV40-Neomycin) (UniProt P13667).
T2 sequence: T1 sequence
The assay can be described thus: co-IP; lysate of HUVECs transfected with PDIA4 or DDIT4 overexpression; anti-PDIA4, anti-DDIT4 or anti-IgG at 4 °C overnight, protein A/G-agarose beads 2 h, western blotting.

Assay [3] concerns the target T1, protein disulfide isomerase family a member 4 (PDIA4), endogenous (human (endogenous in HUVECs)). Described as above.

B1: DNA damage-inducible transcript 4 (DDIT4), endogenous (protein, UniProt Q9NX09 1-232)
chain: MPSLWDRFSSSSTSSSPSSLPRTPTPDRPPRSAWGSATREEGFDRSTSLESSDCESLDSSNSGFGPEEDTAYLDGVSLPDFELLSDPEDEHLCANLMQLLQESLAQARLGSRRPARLLMPSQLVSQVGKELLRLAYSEPCGLRGALLDVCVEQGKSCHSVGQLALDPSLVPTFQLTLVLRLDSRLWPKIQGLFSSANSPFLPGFSQSLTLSTGFRVIKKKLYSSEQLLIEEC
Consider B1, for which the binding result in assay [1] and in assay [2] was “binds” each time.

B2: DDIT4 overexpressed from pcDNA3.1-DDIT4 (protein, UniProt Q9NX09 1-232)
chain: B1 chain
Consider B2, for which the binding entry in assay [3] is listed as “binds”.
